The results in this text go back to US20100285597A1, “DETECTION OF FRAGMENTS OF NECTIN-1 FOR THE DIAGNOSIS OF ALZHEIMER'S DISEASE” (UNIVERSITY OF ROCHESTER, priority 2007, published 2010).

Protein sequences, listed by entry. Tags and fused reporters are not part of them. Residues count along the entry.
UniProt P56819, residues 46-501: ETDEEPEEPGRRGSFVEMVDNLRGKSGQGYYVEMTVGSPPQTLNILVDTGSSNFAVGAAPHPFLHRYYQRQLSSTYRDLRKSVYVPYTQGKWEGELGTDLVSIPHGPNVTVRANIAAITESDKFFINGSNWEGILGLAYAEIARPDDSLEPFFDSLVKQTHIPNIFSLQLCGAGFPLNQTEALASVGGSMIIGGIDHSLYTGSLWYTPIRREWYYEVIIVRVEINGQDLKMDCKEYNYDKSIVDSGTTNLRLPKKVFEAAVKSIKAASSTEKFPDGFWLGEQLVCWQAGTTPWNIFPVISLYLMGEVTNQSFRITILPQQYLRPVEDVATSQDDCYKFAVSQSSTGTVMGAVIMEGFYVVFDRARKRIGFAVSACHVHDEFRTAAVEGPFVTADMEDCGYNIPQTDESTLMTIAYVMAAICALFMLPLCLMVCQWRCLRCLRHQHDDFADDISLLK
UniProt P56817, residues 46-501: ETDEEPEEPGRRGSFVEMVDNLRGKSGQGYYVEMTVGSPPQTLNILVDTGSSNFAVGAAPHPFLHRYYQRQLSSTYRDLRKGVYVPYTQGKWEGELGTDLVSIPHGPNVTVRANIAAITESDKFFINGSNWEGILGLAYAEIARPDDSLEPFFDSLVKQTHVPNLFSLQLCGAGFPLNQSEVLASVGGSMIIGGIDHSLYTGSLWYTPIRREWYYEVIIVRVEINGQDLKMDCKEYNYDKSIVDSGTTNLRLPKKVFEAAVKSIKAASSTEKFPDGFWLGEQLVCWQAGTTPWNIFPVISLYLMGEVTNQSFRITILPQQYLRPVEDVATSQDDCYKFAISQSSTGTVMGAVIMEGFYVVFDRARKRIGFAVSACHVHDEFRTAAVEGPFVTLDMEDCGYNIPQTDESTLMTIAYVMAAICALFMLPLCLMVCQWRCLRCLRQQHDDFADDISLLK

The target in test [1] is BACE1 in rat brain (rat) (UniProt P56819). Kind of test: co-immunoprecipitation from rat brain detergent lysate with BACE1 specific antibody, anti-nectin-1 Western blot. On the technique in general: Immunoblotting shows a protein as a band on a membrane.
The target is the same in test [2]. Kind of test: summary of the rat brain co-immunoprecipitation.
The target of test [3] is BACE1 (UniProt P56817). Kind of test: summary of the co-immunoprecipitation of Example 10.
Test [4] deals with BACE1 (UniProt P56817). Put plainly: co-immunoprecipitation from HEK 293 lysates with C-terminal specific nectin-1 antibody, anti-BACE1 Western blot.
Test [5] concerns the target BACE1 (UniProt P56817). Put plainly: co-immunoprecipitation from HEK 293 lysates with nectin-1 cytoplasmic specific antibody, anti-BACE1 Western blot.

Changes are numbered by the printed parent chain. Numbers in names are those of the source. Results are given in words; binding and its absence hold for the method and conditions named. In cells and extracts the contact can be indirect. Some results given as binding are weak or reduced against the parent protein; the word gives no strength.

B1: nectin-1 in rat brain (receptor)
chain: QVVQVNDSMYGFIGTDVILHCSFANPLPTVKITQVTWQKASNGSKQNMAIYNPTMGVSVLPPYEKRVEFLRPSFIDGTIRLSHLELEDEGMYICEFATFPTGNRESQLNLTVMAKPTNWIEGTQAVLRARKGQDDKVLVATCTSANGKPPSVVSWETRLKGEAEYQEIRNPNGTVTVISRYRLVPSREAHRQSLACIVNYHLDRFRESLTLNVQYEPEVTIEGFDGNWYLQRTDVKLTCKADANPPATEYHWTTLNGSLPKGVEAQNRTLFFRGPINYSLAGTYICEATNPIGTRSGQVEVNITEFPYTPTPEHGRRAGQMPTAIIGGVAGSVLLVLIVVGGIIVALRRRRHTFKGDYSTKKHVYGNGYSKAGIPQHHPPMAQNLQYPDDSDDEKKAGPLGGSSYEEEEEEEGGGGGERKVGGPHPKYDEDAKRPYFTVDEAEARQDGYGDRTLGYQYDPEQLDLAENMVSQNDGSFISKKEWYV
As to B1, the binding entry in test [1] and in test [2] was “binds” throughout.

B2: T310A point mutant of nectin-1 (receptor)
chain: QVVQVNDSMYGFIGTDVVLHCSFANPLPSVKITQVTWQKSTNGSKQNVAIYNPSMGVSVLAPYRERVEFLRPSFTDGTIRLSRLELEDEGVYICEFATFPTGNRESQLNLTVMAKPTNWIEGTQAVLRAKKGQDDKVLVATCTSANGKPPSVVSWETRLKGEAEYQEIRNPNGTVTVISRYRLVPSREAHQQSLACIVNYHMDRFKESLTLNVQYEPEVTIEGFDGNWYLQRMDVKLTCKADANPPATEYHWTTLNGSLPKGVEAQNRTLFFKGPINYSLAGAYICEATNPIGTRSGQVEVNITEFPYTPSPPEHGRRAGPVPTAIIGGVAGSILLVLIVVGGIVVALRRRRHTFKGDYSTKKHVYGNGYSKAGIPQHHPPMAQNLQYPDDSDDEKKAGPLGGSSYEEEEEEEEGGGGGERKVGGPHPKYDEDAKRPYFTVDEAEARQDGYGDRTLGYQYDPEQLDLAENMVSQNDGSFISKKEWYV
Turning to B2, the binding entry in test [3] and in test [4] was “binds” throughout.

B3: S323A point mutant of nectin-1 (receptor)
chain: B2 chain with A283T, S296A
For B3, the binding result in test [3] and in test [4] was “binds” in each case.

B4: Y311A point mutant of nectin-1 (receptor)
chain: B2 chain with A283T, Y284A
Consider B4, for which the binding entry in test [3] and in test [4] was “binds” throughout.

B5: wild type nectin-1 (receptor)
chain: B2 chain with A283T
For B5, the binding entry in test [5] and in test [4] was “binds” in each case.
